The target in assay [1] is T1, GCN5-2×FLAG-2×HA (Ubipro::GCN5-2×FlAG-2×HA transgenic rice) (rice (Oryza sativa)) (UniProt Q338B9).
T1 sequence: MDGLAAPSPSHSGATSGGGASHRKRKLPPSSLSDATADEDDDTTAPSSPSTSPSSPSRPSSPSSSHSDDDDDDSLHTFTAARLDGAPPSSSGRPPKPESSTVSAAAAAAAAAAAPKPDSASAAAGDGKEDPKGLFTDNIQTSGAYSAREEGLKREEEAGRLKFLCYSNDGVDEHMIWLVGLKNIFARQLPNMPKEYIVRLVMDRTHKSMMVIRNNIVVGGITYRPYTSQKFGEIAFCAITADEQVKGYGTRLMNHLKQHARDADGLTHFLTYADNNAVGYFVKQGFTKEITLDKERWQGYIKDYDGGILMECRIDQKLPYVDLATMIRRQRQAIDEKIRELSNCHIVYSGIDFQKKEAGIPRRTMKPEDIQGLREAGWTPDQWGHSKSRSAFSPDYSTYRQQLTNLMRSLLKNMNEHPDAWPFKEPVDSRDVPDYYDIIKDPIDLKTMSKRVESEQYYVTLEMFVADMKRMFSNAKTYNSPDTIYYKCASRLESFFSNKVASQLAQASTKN
The assay is described as follows: co-IP; 14-day-old seedlings of GCN5-2×FLAG-2×HA transgenic or wild-type rice; RIPA buffer; anti-FLAG M2 magnetic beads overnight at 4 °C; blots with anti-HA, anti-ACLA2, anti-ADA2.

For assay [2], the target named is T2, GCN5-NLuc (rice (Oryza sativa)) (UniProt Q338B9).
T2 sequence: T1 sequence
The assay can be described thus: split reporter; split-luciferase complementation (NLuc/CLuc of firefly luciferase) in Nicotiana benthamiana leaves, 48 h after infiltration, 1 mM luciferin.

Results are given in words; binding and its absence hold for the method and conditions named. Binding seen in cells or lysates may run through a third protein. Some binding calls cover weakened binding; strength is not graded here. Sequences can lack the tags named with a protein.

B1: ADA2, endogenous in rice seedlings (protein, UniProt Q75LL6 1-567)
chain: MGRSRGVPNSGDDETNHRSKRRRVASSGDAPDSLSAACGGAGEGGGKKALYHCNYCNKDISGKIRIKCSKCPDFDLCVECFSVGAEVTPHRSNHPYRVMDNLSFPLICPDWNADEEILLLEGIEMYGLGNWAEVAEHVGTKTKAQCIDHYTTAYMNSPCYPLPDMSHVNGKNRKELLAMAKVQGESKKVLPGDLTPKDESPFSPPRVKVEDALGEGLAGRSPSHIAGGANKKASNVGQFKDGANVAKVEDGHVDRSIGVKKPRYSADEGPSLTELSGYNSKRHEFDPEYDNDAEQALAEMEFKETDSETDRELKLRVLRIYLSRLDERKRRKEFILERNLLFPNPLEKDLTNEDKEVYHRYKVFMRFLSKEEHEALVRSVLEERKIRRRIQELQECRSAGCRTLAEAKIHIEQKRKKEHEVNAQKAKESGQLLSNTKVVHKTNRPMKIESDGNLDQKKGGASLDSTGRDSPKTTGHAGTKHWDDWDIVGFPGAELLSTSEKNLCCQNRLLPNHYLKMQEVLMQEIFKGSVAKKEDAHVLFKVDPAKVDNVYDMVTKKLGTNEEAPTV
Regarding B1, in assay [1], the binding result is “binds”.

B2: CLuc-ADA2 (protein, UniProt Q75LL6 1-567)
chain: B1 chain
Turning to B2, in assay [2], the binding entry is on record as “binds”.

For the origin of these results see paper PMC12849889.
